{"source": "patent US11154501B2", "about": "“Method of enhancing the efficacy and stability of ingredients in suspensions” (Nanophase Technologies Corporation, priority 2019, dated 2021)", "origin": "cited, not measured here", "conditions": "in neutral water"}
{"smiles": "O=c1c(O)c(-c2ccc(O)c(O)c2)oc2cc(O)cc(O)c12", "note": "[quercetin]", "values": [{"measurement": "solubility (in words)", "value": "very poorly soluble"}]}
